These are yes or no findings as the source states them, for the method shown.

Here are results for one molecule from paper PMC9402430, “Cryo-EM structure of an active bacterial TIR–STING filament complex” (Nature, 2022).

The target in the test is SfSTING V280D (Sphingobacterium faecium). As to the kind of experiment: native gel or EMSA; 20 μM protein with about 1 μM 32P-labelled c-di-GMP, 5 mM Mg(OAc)2, 50 mM Tris-HCl pH 7.5, 50 mM KCl, 5 min at 25 °C, 6% nondenaturing polyacrylamide gel; 'probable filament band' read as dimers to filament; both purified. Background: A gel shift assay detects complexes by their altered migration in electrophoresis.

B1: SfSTING V280D (enzyme, UniProt A0A2T5Y4G4 1-323)
chain: MKKRIFIGSSSEQLTILNEIVDLLGDDVECIPWTDAFALNKSGLDSLIKQTRLADYSILIATKDDLTKQRGESLTKPRDNVVFEFGLFLGAAGPEKCYLIAEEDTDLPTDLDGITVAKFTRNSGQYNSLDKIVESIRTHLVKIAEMSQLGLLPSTALAIGYYNSFIKRVCEEIHGSECVELEGKKIKVKSFRVDVVIPETLDDNGVGNFTTLYNKRYGLSKATTCTNPALLGTRGFPFHFKVDPPDANQESPVDIHLLDIPSTLSTIVESLKLYLPSNQDGQDFDMDYLEMRELENFAKVLKYLIGRNAATKGYVNVLTNVKL
Regarding B1, the binding entry was “no binding (tested: 20 μM)”.
